Measurements reported in the supplement of paper PMC7666118.
The list shows a part of the results.

Sequences of proteins named here, by UniProt entry; tags and fusion partners are left off. A change or cut given only in a name is not applied to a line headed by its entry.
UniProt Q8WTW3: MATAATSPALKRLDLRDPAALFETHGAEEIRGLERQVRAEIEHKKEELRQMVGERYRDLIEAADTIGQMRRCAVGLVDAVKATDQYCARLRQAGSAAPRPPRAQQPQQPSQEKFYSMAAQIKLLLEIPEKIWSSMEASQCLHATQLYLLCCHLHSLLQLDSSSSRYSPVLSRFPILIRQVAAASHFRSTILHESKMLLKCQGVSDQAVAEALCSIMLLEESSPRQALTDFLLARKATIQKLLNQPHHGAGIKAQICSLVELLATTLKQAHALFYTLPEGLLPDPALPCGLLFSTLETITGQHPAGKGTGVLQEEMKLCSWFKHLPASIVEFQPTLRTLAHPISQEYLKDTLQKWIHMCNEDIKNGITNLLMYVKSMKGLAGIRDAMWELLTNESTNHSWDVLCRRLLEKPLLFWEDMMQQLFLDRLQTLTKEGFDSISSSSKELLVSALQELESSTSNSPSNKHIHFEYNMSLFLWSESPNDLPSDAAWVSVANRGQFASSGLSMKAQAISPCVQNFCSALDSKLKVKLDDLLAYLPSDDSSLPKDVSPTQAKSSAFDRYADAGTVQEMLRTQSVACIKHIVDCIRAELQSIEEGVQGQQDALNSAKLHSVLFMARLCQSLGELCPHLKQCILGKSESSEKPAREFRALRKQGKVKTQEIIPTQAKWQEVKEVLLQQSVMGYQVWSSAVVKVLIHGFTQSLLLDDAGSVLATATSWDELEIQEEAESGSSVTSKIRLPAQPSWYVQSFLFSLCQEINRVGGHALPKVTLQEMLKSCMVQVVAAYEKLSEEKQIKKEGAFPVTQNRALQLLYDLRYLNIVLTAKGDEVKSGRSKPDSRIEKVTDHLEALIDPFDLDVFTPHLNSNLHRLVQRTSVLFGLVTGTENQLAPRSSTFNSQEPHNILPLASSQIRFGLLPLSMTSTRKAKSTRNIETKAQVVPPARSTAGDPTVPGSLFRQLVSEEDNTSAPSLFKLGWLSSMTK
UniProt O96005: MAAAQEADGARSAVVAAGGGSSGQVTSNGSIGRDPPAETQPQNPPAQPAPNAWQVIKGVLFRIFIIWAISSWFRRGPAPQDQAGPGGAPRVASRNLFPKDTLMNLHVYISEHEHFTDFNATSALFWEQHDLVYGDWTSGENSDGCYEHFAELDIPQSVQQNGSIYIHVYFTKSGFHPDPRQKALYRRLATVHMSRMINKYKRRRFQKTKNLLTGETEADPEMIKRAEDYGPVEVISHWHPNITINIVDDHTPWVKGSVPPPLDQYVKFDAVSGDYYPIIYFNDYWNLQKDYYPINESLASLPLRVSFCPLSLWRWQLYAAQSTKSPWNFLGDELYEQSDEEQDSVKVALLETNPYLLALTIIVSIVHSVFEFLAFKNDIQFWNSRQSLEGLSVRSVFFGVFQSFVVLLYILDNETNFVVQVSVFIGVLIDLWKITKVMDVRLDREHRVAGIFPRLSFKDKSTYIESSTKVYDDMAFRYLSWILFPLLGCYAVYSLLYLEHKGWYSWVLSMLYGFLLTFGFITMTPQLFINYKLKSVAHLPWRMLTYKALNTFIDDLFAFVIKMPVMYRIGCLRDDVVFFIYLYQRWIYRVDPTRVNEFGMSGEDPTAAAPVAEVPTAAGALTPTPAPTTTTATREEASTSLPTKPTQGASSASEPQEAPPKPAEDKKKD
UniProt Q9H444: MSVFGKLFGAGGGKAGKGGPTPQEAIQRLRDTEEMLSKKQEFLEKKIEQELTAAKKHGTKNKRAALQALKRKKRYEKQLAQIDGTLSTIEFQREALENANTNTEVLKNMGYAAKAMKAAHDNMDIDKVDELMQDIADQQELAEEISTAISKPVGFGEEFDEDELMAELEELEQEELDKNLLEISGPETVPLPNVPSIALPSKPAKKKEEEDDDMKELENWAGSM
UniProt Q8ND76: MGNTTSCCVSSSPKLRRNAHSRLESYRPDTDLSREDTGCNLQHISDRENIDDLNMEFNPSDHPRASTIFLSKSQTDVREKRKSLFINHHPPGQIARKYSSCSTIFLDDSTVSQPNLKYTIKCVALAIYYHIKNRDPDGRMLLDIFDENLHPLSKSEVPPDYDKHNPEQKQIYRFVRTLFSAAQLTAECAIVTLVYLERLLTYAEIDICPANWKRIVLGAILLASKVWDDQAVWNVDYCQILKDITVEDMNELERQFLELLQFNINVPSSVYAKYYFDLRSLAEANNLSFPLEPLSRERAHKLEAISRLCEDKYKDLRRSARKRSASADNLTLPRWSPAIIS
UniProt P09497: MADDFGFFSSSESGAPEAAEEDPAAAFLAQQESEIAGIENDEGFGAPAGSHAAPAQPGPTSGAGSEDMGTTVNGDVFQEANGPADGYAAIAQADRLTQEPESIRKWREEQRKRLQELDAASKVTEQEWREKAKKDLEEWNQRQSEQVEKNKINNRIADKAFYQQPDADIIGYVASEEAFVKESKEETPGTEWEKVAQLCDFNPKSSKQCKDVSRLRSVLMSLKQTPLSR
UniProt Q96A33: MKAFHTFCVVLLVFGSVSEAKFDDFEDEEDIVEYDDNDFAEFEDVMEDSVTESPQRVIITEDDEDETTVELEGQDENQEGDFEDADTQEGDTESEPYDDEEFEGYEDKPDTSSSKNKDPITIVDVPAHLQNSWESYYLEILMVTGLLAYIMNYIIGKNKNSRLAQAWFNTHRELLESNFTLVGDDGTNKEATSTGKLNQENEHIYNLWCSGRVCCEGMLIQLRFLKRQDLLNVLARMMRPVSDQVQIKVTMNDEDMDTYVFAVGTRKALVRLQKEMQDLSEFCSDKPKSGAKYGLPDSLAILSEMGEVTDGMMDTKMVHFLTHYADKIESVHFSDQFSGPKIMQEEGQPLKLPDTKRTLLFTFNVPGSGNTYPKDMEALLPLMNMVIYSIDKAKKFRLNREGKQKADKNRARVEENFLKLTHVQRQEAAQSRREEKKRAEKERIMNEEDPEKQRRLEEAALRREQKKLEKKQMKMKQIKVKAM
UniProt P24386: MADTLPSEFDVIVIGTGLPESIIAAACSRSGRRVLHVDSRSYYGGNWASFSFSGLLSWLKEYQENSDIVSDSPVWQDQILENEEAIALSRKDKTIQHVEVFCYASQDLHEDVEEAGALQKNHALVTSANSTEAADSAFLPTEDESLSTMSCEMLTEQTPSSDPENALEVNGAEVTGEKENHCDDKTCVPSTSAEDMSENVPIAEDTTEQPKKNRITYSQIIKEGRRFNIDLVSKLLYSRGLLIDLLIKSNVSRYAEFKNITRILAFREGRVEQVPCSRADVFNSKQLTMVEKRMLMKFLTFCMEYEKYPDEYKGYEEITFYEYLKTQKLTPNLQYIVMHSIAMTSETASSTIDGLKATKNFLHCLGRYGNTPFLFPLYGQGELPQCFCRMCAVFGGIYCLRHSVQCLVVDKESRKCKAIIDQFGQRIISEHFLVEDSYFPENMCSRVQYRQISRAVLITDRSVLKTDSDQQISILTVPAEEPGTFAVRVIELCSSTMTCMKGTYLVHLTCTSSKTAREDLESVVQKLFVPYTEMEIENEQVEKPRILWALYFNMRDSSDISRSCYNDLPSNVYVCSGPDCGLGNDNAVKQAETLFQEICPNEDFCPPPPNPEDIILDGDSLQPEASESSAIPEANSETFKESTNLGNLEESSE
UniProt Q9UIB8: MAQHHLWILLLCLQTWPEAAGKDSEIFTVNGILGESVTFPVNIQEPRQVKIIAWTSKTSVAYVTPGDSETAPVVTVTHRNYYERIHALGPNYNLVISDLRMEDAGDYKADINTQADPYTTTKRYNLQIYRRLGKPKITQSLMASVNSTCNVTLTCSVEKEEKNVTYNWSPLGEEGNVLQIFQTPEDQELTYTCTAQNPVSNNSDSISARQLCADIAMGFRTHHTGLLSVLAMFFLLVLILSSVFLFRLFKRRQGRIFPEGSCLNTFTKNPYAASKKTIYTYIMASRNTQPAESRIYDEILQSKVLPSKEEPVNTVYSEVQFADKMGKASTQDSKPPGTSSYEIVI
UniProt Q8N954: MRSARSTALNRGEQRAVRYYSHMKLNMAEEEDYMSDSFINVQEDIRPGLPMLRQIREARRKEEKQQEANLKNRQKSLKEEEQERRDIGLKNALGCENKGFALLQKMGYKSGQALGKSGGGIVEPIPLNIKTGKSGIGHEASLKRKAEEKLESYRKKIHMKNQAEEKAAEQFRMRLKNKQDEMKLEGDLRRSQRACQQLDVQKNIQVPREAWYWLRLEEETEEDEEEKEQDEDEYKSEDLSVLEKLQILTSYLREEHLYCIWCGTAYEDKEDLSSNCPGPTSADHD
UniProt Q14746: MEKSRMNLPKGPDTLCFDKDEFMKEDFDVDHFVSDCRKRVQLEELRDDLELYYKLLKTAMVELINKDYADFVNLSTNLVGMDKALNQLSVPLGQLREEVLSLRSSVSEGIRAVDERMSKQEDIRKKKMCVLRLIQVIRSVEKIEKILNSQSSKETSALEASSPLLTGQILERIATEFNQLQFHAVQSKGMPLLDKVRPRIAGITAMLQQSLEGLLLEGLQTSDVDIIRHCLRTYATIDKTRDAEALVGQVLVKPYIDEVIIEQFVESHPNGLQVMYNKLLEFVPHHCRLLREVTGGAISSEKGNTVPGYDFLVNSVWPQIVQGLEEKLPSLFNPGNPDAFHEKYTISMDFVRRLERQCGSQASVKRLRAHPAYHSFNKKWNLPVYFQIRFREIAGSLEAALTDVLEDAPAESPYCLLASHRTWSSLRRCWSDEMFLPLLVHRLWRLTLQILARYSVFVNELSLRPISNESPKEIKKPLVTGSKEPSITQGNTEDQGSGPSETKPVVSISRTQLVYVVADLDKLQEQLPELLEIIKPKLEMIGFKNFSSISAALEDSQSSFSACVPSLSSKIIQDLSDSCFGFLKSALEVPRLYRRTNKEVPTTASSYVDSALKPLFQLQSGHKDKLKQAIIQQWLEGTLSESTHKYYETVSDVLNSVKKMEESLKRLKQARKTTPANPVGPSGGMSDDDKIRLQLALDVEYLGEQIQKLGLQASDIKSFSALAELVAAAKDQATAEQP
UniProt Q9UQN3, whole entry: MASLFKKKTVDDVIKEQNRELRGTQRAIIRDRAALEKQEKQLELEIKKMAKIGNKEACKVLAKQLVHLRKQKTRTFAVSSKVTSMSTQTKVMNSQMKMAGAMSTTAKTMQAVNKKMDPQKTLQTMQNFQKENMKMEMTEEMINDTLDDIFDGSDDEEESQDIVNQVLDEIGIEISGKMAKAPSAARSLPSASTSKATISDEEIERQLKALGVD
UniProt Q96CT7: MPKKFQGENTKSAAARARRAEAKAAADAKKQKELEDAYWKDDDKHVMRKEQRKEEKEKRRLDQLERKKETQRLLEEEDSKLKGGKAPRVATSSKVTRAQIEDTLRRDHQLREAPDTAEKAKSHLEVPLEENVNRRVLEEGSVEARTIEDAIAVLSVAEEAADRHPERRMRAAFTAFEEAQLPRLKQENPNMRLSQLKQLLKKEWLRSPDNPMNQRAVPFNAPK
UniProt P11802: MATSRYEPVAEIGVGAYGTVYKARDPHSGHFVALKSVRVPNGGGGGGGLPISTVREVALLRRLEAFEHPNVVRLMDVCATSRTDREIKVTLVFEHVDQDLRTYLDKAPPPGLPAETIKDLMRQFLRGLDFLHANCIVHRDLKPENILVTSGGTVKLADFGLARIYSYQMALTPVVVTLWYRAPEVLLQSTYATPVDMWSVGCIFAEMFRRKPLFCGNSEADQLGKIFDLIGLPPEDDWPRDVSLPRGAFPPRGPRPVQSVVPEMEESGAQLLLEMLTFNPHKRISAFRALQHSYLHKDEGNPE
UniProt P09496: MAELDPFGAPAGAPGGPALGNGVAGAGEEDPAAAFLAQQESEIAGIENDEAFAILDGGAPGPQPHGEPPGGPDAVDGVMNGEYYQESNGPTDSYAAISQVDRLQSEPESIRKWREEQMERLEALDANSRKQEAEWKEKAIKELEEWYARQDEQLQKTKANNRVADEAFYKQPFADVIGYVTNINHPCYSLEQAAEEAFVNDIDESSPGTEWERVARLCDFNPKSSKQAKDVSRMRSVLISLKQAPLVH
UniProt P41208: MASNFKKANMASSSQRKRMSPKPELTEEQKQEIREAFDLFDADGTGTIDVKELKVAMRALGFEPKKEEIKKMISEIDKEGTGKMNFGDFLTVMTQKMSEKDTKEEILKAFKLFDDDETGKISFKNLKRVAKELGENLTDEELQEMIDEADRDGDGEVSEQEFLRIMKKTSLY
UniProt Q9Y6H1: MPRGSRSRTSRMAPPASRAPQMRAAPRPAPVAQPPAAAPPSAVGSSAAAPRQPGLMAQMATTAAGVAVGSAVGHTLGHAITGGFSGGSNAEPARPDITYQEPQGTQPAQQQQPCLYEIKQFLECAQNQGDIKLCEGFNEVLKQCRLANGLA
UniProt Q6IPU0: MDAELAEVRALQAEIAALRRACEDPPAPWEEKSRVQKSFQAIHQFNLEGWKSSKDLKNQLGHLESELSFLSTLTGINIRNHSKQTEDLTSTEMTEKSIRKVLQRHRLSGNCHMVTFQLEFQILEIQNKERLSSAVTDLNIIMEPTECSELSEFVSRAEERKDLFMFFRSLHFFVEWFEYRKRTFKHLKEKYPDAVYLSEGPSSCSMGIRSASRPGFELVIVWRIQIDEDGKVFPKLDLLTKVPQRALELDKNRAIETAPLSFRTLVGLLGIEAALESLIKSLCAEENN

Compound: COc1ccc(Cn2ccc3ccc(C(=O)NO)cc32)cc1
Assay: dose-dependent thermal stabilisation call (2D-TPP, DLPTP, 10% FDR) (binary (1 = stabilised)); higher = stabilised by the compound
Conditions: system: HL-60 intact cells; concentration range 0.04-10 µM

| Target | dose-dependent thermal stabilisation call |
| --- | --- |
| COG1 (UniProt Q8WTW3) | inactive: 0 |
| CLPTM1 (UniProt O96005) | inactive: 0 |
| CDK9 (UniProt P50750) | inactive: 0 |
| CHMP4B (UniProt Q9H444) | inactive: 0 |
| CLCN5 (UniProt P51795) | inactive: 0 |
| CCDC99 (UniProt Q96EA4) | inactive: 0 |
| CEP350 (UniProt Q5VT06) | inactive: 0 |
| CCNY (UniProt Q8ND76) | inactive: 0 |
| CLTB (UniProt P09497) | inactive: 0 |
| CCDC47 (UniProt Q96A33) | inactive: 0 |
| CHML (UniProt P26374) | inactive: 0 |
| CNNM3 (UniProt Q8NE01) | inactive: 0 |
| CEP120 (UniProt Q8N960) | inactive: 0 |
| CEP78 (UniProt Q5JTW2) | inactive: 0 |
| CHM (UniProt P24386) | inactive: 0 |
| CD84 (UniProt Q9UIB8) | inactive: 0 |
| CCDC75 (UniProt Q8N954) | inactive: 0 |
| COG2 (UniProt Q14746) | inactive: 0 |
| CHMP2B (UniProt Q9UQN3) | inactive: 0 |

| Target | dose-dependent thermal stabilisation call |
| --- | --- |
| CD37 (UniProt P11049) | inactive: 0 |
| CCDC124 (UniProt Q96CT7) | inactive: 0 |
| CDK4 (UniProt P11802) | inactive: 0 |
| CIAO1 (UniProt O76071) | inactive: 0 |
| CNOT6L (UniProt Q96LI5) | inactive: 0 |
| CLTA (UniProt P09496) | inactive: 0 |
| CNOT10 (UniProt Q9H9A5) | inactive: 0 |
| CDC37L1 (UniProt Q7L3B6) | inactive: 0 |
| CCDC117 (UniProt Q8IWD4) | inactive: 0 |
| CETN2 (UniProt P41208) | inactive: 0 |
| CLASP2 (UniProt O75122) | inactive: 0 |
| CEP110 | inactive: 0 |
| CEP170 (UniProt Q5SW79) | inactive: 0 |
| CDK8 (UniProt P49336) | inactive: 0 |
| CHMP4A (UniProt Q9BY43) | inactive: 0 |
| CHCHD2 (UniProt Q9Y6H1) | inactive: 0 |
| CENPP (UniProt Q6IPU0) | inactive: 0 |
| CIB1 (UniProt Q99828) | inactive: 0 |
| CCNC (UniProt P24863) | inactive: 0 |

3 records drawn at random from the list so far, as already listed:

| Target | dose-dependent thermal stabilisation call |
| --- | --- |
| CIAO1 (UniProt O76071) | inactive: 0 |
| CDC37L1 (UniProt Q7L3B6) | inactive: 0 |
| CENPP (UniProt Q6IPU0) | inactive: 0 |
